Test results reported in patent US20150037356A1 (AstraZeneca / MedImmune, published 2015).
No constants are given. Whether binding was seen depends on the method and setting. Some entries that bind do so weakly or less than the wild type.

How the values were obtained:
[1] = biological target: T1, HA-tagged Siglec-15 extracellular domains in pDisplay construct (PDGFR transmembrane domain) on CHO cells (human) (UniProt Q6ZMC9+P09619); assay: FACS surface staining over time at 37 C on CHO-pDisplay Siglec-15 cells
[2] = biological target: T2, endogenous Siglec-15 on leukaemic cell lines (human) (UniProt Q6ZMC9); assay: FACS surface staining of K562 cells (endocytosis assay)
T2 sequence (looked up): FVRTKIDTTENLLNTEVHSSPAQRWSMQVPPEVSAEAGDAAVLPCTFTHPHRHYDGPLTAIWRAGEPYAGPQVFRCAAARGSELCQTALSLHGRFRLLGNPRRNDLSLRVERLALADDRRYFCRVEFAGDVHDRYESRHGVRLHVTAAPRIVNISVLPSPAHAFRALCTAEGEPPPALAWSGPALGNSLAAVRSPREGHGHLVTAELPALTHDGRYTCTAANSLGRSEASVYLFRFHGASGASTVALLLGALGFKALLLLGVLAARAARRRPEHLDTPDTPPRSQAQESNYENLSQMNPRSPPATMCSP

[3] = biological target: T1, HA-tagged Siglec-15 extracellular domains in pDisplay construct (PDGFR transmembrane domain) on CHO cells (human); assay: flow cytometry on CHO-pDisplay Siglec-15 cells
[4] = biological target: T1, HA-tagged Siglec-15 extracellular domains in pDisplay construct (PDGFR transmembrane domain) on CHO cells (human); assay: FACS on CHO-pDisplay Siglec-15 cells, mouse IgG1 format
[5] = biological target: T2, endogenous Siglec-15 on leukaemic cell lines (human); assay: FACS surface staining of leukaemic cell lines

Measured: binding

B1: A9E8 monoclonal antibody (mouse IgG1 format) (antibody, V domains shown)
VH: QLQLQESGPGLVKPSETLSLTCAVSGASISNWWSWVRQPPGKGLEWIGEVHHSGVTTYKPSLKSRVTISVDNSKNQLSLKLTSVTAADTAVYYCAREFADDAFDIWGRGTMVTVSS
VL: SSELTQDPAVSVALGQTVRITCRGDSLRKYYASWYQQKPRQAPQLVIYHKNNRASGIPDRFSGSISGNTASLTITGAQAEDEAAYFCNSRDTSGNYLVFGGGTKVTVLG
notes: VH and VL from the phage scFv were cloned into a mouse IgG1 backbone and expressed as complete mouse IgG1; also called A9E8 antibody
binds: [1] | [2] | [3] | [4] | [5]
